Laboratory results from paper PMC12141185.
These are yes or no findings as the source states them, for the method shown. Binding seen in cells or lysates may run through a third protein. Here binding means that the protein was enriched with, or labelled near, the bait; the list need not be complete. Tags and fused reporters may be left off the sequences shown.

By UniProt entry, the sequences of proteins in these tests, tags left out.
UniProt Q13283: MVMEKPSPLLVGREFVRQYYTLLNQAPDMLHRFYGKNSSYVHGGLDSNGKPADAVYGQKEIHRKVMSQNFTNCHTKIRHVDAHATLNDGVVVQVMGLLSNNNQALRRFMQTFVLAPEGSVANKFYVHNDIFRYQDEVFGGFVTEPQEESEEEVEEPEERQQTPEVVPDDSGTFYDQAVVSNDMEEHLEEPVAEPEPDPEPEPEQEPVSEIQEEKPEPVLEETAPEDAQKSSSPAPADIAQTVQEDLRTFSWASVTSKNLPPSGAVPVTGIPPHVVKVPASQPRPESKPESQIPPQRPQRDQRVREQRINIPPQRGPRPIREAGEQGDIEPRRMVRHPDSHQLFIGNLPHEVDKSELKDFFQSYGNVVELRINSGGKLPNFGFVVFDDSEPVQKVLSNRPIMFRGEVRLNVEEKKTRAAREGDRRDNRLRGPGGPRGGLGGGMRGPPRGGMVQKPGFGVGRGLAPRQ
UniProt O95365: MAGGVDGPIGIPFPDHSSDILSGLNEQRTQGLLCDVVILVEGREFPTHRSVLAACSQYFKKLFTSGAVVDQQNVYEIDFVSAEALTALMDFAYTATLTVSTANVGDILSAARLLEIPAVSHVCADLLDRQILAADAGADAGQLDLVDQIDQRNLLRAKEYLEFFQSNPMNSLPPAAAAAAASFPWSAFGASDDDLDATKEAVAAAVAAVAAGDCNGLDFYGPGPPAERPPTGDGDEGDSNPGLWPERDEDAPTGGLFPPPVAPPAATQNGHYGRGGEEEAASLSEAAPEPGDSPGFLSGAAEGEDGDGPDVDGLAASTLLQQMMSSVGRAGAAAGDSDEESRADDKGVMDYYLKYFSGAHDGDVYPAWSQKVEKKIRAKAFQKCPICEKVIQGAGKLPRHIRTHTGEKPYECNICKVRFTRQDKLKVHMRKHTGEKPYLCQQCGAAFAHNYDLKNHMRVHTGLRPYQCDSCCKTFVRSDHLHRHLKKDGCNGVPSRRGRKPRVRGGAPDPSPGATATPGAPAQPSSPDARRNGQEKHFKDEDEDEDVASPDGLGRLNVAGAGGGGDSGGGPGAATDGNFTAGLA

Target: T1, 3 × FLAG-TMED3 (Transmembrane emp24 domain-containing protein 3) (UniProt Q9Y3Q3)
T1 sequence: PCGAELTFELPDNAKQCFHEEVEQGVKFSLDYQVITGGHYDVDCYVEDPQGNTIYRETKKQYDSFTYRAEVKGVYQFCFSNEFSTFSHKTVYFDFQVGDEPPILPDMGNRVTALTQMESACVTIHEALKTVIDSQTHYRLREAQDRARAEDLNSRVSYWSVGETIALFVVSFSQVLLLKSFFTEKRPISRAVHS
Experiment: affinity purification with mass spectrometry; Co-IP with FLAG-beads (Sigma) from RIPA lysates of stable NC (empty vector) and OE (3xFLAG-TMED3) U87 MG lines; SDS-PAGE, in-gel trypsin digestion, LC-MS/MS (Q-Exactive); proteins specific to the OE group selected

binding | Substance
binds | G3BP1 (from UniProt Q13283 1-466)
binds | Zinc finger and BTB domain-containing protein 7A (ZBTB7A) (from UniProt O95365 1-584)
